# Laboratory results: the supplement of paper PMC8426693
# Some of the results follow.
# Assays:
# Assay in all cases: NMR binding call after quantification (hit when 2 of 3 NMR criteria are met) (binary (1 = binding, 0 = not binding)); higher = binding
# Conditions in all cases: RNA concentration 10 µM; fragment concentration 200 µM; 293 K
# [1] = test system: SARS-CoV-2 5_SL7 RNA
# [2] = test system: SARS-CoV-2 5_SL8 RNA
# [3] = test system: SARS-CoV-2 attenuator hairpin (att HP) RNA
# [4] = test system: SARS-CoV-2 frameshift pseudoknot (PK) RNA
Compound,NMR binding call [1],NMR binding call [2],NMR binding call [3],NMR binding call [4]
CN(C)C(=O)Nc1ccc(S(N)(=O)=O)cc1,0,0,0,0
COc1cccc2[nH]ccc12,0,0,0,0
NC(=S)Nc1ccccc1OC(F)(F)F,0,0,0,0
O=C(Nc1ccccn1)c1cnccn1,0,0,0,0
O=C(Nc1ccc2ncccc2c1)c1ccccc1,0,1,0,0
CCC(=O)NCc1nnc2n1CCCC2,0,0,0,0
CC(C)(O)CNC1CCOCC1,0,0,0,0
Cc1cc(F)ccc1CS(N)(=O)=O,0,0,0,0
Cc1ccc(CC(=O)NCC2CCCO2)cc1 (centres undefined),0,0,0,0
CCOC(=O)Nc1cccc(Cl)c1,0,0,0,0
O=C(NCCc1ccc(O)cc1)c1ccccn1,0,0,0,0
O=C(O)c1cccc(NC(=O)c2ccno2)c1,0,0,0,0
COC(=O)C1CCN(C(=O)NC(C)(C)C)CC1,0,0,0,0
N#CCC(=O)NC1CCCCC1,0,0,0,0
CN(C(=O)C1CC1(C)C)c1cccnc1 (centres undefined),0,0,0,0
COC(=O)Nc1cc(C)n(-c2ccccc2)n1,0,0,0,0
Cc1cc(C(=O)NC(C)C)on1,0,0,0,0
c1csc(CNCc2ccncc2)c1,0,0,0,0
CC(=O)NC(C)(C(=O)O)C1CC1 (centres undefined),0,0,0,0
CC(=O)Nc1ccc(Nc2ccccc2)cc1,0,0,0,0
CC(O)COc1cccc(F)c1 (centres undefined),0,0,0,0
O=C(OCc1ccc(Cl)cc1)c1cccnc1,0,0,0,0
Fc1cccc(CNCc2ccco2)c1,0,0,0,0
Cc1noc(CC(N)c2ccccc2)n1.Cl (centres undefined),0,0,0,0
O=C(NCCC1=CCCCC1)c1cnccn1,0,0,0,0
OCC1CCN(c2ncccn2)CC1,0,0,0,0

Compound,NMR binding call [1],NMR binding call [2],NMR binding call [3],NMR binding call [4]
Oc1ccccc1CN1CCc2ccccc2C1,0,0,0,0
COc1cccc(CN2CCC(C(N)=O)CC2)c1,0,0,0,0
c1cnc(NC2CCCCCC2)nc1,0,0,0,0
CC(N)C(=O)N1CCCCC1C (centres undefined),0,0,0,0
CC(C)C(=O)N1CCC(Cc2ccccc2)CC1,0,0,0,0
Cc1ccccc1OCC(=O)Nc1ncccn1,0,0,0,0
O=C(NCc1ccco1)NC1CCCCC1,0,0,0,0
Cc1nsc(N2CCCNCC2)n1,0,0,0,0
CCN(CC)S(=O)(=O)c1ccc(C)cc1,0,0,0,0
O=C(NCc1ccc(F)cc1)Nc1ccccc1,0,0,0,0
Cl.Cl.c1cn(CC2CCCCN2)nn1 (centres undefined),0,0,0,0
CC(C)c1ncc(Cl)c(C(N)=O)n1,0,0,0,0
COc1ccc2sc(N)nc2c1,0,0,0,0
c1ccc2sc(N3CCOCC3)nc2c1,0,0,0,0
COc1ccccc1N1CCN(CC#N)CC1,0,0,0,0
CCc1ccc(OCC(=O)N2CCCCC2)cc1,0,0,0,0
CC(C)C(=O)NCc1nc2ccccc2[nH]1,0,0,0,0
CC(N)c1ccc(N2CCOCC2)cc1 (centres undefined),0,0,0,0
C1CC(Cc2nc(C3CC3)no2)CCN1,0,0,0,0
CNS(=O)(=O)Cc1cc(C)on1,0,0,0,0
CC(C)(C)NC(=O)N1CCC(C(N)=O)CC1,0,0,0,0
COC(=O)C1CC(O)CN1C(=O)c1ccco1 (centres undefined),0,0,0,0
CCn1cc(CCO)cn1,0,0,0,0
Cc1csc(CNC(=O)c2cc[nH]n2)n1,0,0,0,0
CC(=O)N1CCC(c2c[nH]c3ccccc23)CC1,0,0,0,0
CN(CCO)S(=O)(=O)c1ccc(N)cc1,0,0,0,0

# Looked up above.
# NMR binding call [2] with `CCN(CC)S(=O)(=O)c1ccc(C)cc1` is entered as 0
# NMR binding call [3] with `CC(C)(C)NC(=O)N1CCC(C(N)=O)CC1` is entered as 0
# NMR binding call [2] with `Cc1nsc(N2CCCNCC2)n1` is entered as 0
# NMR binding call [4] with `COC(=O)C1CC(O)CN1C(=O)c1ccco1` (centres undefined) is entered as 0
# NMR binding call [1] with `COc1ccc2sc(N)nc2c1` is entered as 0

# (listing goes on)

Compound,NMR binding call [1],NMR binding call [2],NMR binding call [3],NMR binding call [4]
Cc1csc(NC(=O)C2CCOCC2)n1,0,0,0,0
Cc1cc(C)nc(NC(=O)Nc2ccccc2)c1,0,0,0,0
CC(C)C(N)C(=O)N1CCOCC1 (centres undefined),0,0,0,0
CC(=O)N1CC(O)CC1C(=O)O (centres undefined),0,0,0,0
Cc1noc(C)c1C(=O)NCCC1=CCCCC1,0,0,0,0
Cc1noc(CN2CCC(CO)CC2)n1,0,0,0,0
CCOC(=O)N1CCOCC1,0,0,0,0
CC(C)c1nnc(NCC(C)(C)C)s1,0,0,0,0
COCc1cc(C(N)=O)no1,0,0,0,0
CC(C)C(=O)Nc1cccc(C#N)c1,0,0,0,0
CS(=O)(=O)c1nccn1Cc1cscn1,0,0,0,0
Cc1nc(CC(=O)N2CCOCC2)cs1,0,0,0,0
Cc1[nH][nH]c(=O)c1CCO,0,0,0,0
c1cc(CN2CCNCC2)no1,0,0,0,0
CC(C)(C)CC(=O)Nc1ccc(F)cc1F,0,0,0,0
CN1CCN(C(=O)C2CCCN2)CC1 (centres undefined),0,0,0,0
CC1CCCC1NCCO (centres undefined),0,0,0,0
O=C(NCc1nc2ccccc2[nH]1)c1ccco1,0,0,0,0
CC(N)c1nc(Cc2ccccc2)no1.Cl (centres undefined),0,0,0,0
CC(=O)NC(C(=O)O)C1CCOCC1 (centres undefined),0,0,0,0
Cc1cccc(N2CCNC(C)C2)n1 (centres undefined),0,0,0,0
CCc1nc(C2CCCN2)no1 (centres undefined),0,0,0,0
c1coc(CNc2nc3ccccc3[nH]2)c1,0,0,0,0
Cc1nc(C(=O)N2CCCC2)c(C)s1,0,0,0,0
